At least one compound was matched to its structure with a doubt left.
Test system: rats contaminated with ^241Am
Assay: Radionuclide decorporation efficacy study in rats contaminated with 241Am (Example 10): excretion, tissue content, liver and skeleton burden
Type: in vivo, SD rats
Details: first 24 h after administration; 14 mg/kg i.v.
Protocol: All animal studies were conducted according to a protocol approved by the University of North Carolina at Chapel Hill Institutional Animal Care and Use Committee (IACUC). Ten-week-old adult female SD rats weighing from 200 to 300 g were used in these studies (Charles River Labs, Raleigh, N.C.). Food and water were given ad libitum. The animal room was kept at a controlled temperature (23° C.) and light cycle (light exposure from 8 AM to 8 PM). For the duration of the study, the rats were housed in metabolic cages individually with daily urine and feces collection until euthanasia on Day 7.
To evaluate the efficacy of transdermal delivery of the C2E5 nonaqueous gel, a radionuclide decorporation efficacy study was conducted in rats contaminated with ^241Am. […] The mass of C2E5 gel applied was recorded for each animal to permit the actual dose determination. […] The animals were observed once daily and their body weights recorded at pre-dose and prior to necropsy, Urine and feces were collected daily until euthanasia, when the liver, kidneys, both femurs and the muscle tissue from around the injection site were also collected. […] As ˜35% of the decay of ^241Am is associated with photon emissions of 59.7 keV, ^241Am present in samples was quantified using a gamma counter (2470 Wizard 2, Perkin Elmer). […] Additionally, ^241Am activity was quantified in 2×0.1 mL aliquots of the dosing solution. […]

O=C([O-])CN(CCN(CC(=O)[O-])CC(=O)[O-])CCN(CC(=O)[O-])CC(=O)[O-].[Ca+2].[Na+].[Na+].[Na+] [Ca-DTPA, reference compound]
ratio of urine excretion over fecal excretion of ^241Am: 15:1

Source: patent US20140243411A1 (priority 2011, published 2014)
